Measured values taken from patent publication US5641520A, “Halogen compositions for water treatment” (priority 1995, dated 1997).
At least one structure is not confirmed: it was looked up by name or label, or the drawing left a doubt.

Tests used:
[1] = BrO3- ion (halate) formation by ion-chromatography; format: physicochemical; details: effect of DMH / of high acidity
[2] = Oxidation-reduction-potential measurements in the presence of dialkylhydantoins; format: physicochemical; details: presence of dialkylhydantoins such as DMH

For CC1(C)NC(=O)NC1=O [DMH, Dimethylhydantoin], the “BrO3^- ion formation” value [1] was “effective in suppressing BrO3^- ion formation” and the “Association of OBr^- ions (ORP)” value [2] was “OBr^- ions are not free entities, but are strongly associated to the DAH molecules”.
